Test results taken from the supplement of paper PMC8616043.
Several values for one entry are separate records, joined by “and”; a condition that tells them apart may be missing. Identical values can stand only once. Counter-ions that a name gives are not always drawn. The list shows a part of the results. Single values are uncertain here, since repeats match poorly.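 PR50, a 50-repeat proline–arginine dipeptide protein from C9ORF72 (ALS/FTD), was expressed by transfection in U-2 OS human cells stably carrying a GFP sensor with import and classical export signals. Per-well nuclear-minus-cytoplasm GFP, normalized between in-plate DMSO (low) and PR-only (high), was scored versus other test wells; compounds well below zero were hits reversing PR.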

Test system: U-2 OS NCT-C biosensor cells expressing PR50
Assay: Z-score of normalised NCT-C biosensor translocation index in PR50-expressing cells; higher = more nuclear biosensor (more disrupted nuclear export)
Conditions: 3 µM; 24 h

Structure (SMILES) | Z-score
COc1cc2nc(N3CCN(C(=O)c4ccco4)CC3)nc(N)c2cc1OC [Prazosin hydrochloride] | inactive: 0.174
COc1cc2nc(N3CCN(C(=O)c4ccco4)CC3)nc(N)c2cc1OC [Prazosin·HCl] | active: -2.41
NCCS(=O)(=O)O [Taurine] | inactive: -0.128
CCCCS(=O)(=O)N[C@@H](Cc1ccc(OCCCCC2CCNCC2)cc1)C(=O)O [Tirofiban·HCl monohydrate] | inactive: -0.581
CCCCS(=O)(=O)N[C@@H](Cc1ccc(OCCCCC2CCNCC2)cc1)C(=O)O [Tirofiban hydrochloride monohydrate] | inactive: -1.32
N#CC(C#N)=C(N)/C(C#N)=C/c1ccc(O)cc1 [Tyrphostin AG 112] | inactive: -0.406
CCN(CC)Cc1ccc2cc(COC(=O)Nc3ccc(C(=O)NO)cc3)ccc2c1 [Givinostat (ITF2357)] | inactive: -0.532
O=c1oc(Cl)c(Cl)c2ccccc12 [3,4-Dichloroisocoumarin] | inactive: -0.516
NCCCCCCCCCCN [1,10-  Diaminodecane] | inactive: 0.0339
OC[C@H]1O[C@@H](Oc2ccc(O)cc2)[C@H](O)[C@@H](O)[C@@H]1O [Arbutin] | inactive: -0.47
O=C(c1ccc(C(=O)N2CCC(N3CCCC3)CC2)c(Nc2ccccc2)c1)N1CCC(N2CCCC2)CC1 | active: -2.5
Nc1ccc(S(=O)(=O)c2ccc(N)cc2)cc1 [Dapsone] | inactive: -0.00477
O=Nc1ccc(O)c2ncccc12 | inactive: -1.54
CN(C)CCc1c[nH]c2ccc(Cn3cncn3)cc12 [Rizatriptan benzoate salt] | inactive: -0.44
CN(C)CCc1c[nH]c2ccc(Cn3cncn3)cc12 [Rizatriptan Benzoate] | inactive: -1.02
OCCN1CCN(CCCN2c3ccccc3Sc3ccc(Cl)cc32)CC1 [Perphenazine] | inactive: -0.329
CCCC(=O)O[C@]1(C(=O)COC(C)=O)CC[C@H]2[C@@H]3C[C@H](F)C4=CC(=O)C=C[C@]4(C)[C@@]3(F)[C@@H](O)C[C@@]21C [Difluprednate] | inactive: -0.175
CCC[C@H](N[C@@H](C)C(=O)N1[C@H](C(=O)O)C[C@@H]2CCCC[C@@H]21)C(=O)OCC [Perindopril Erbumine] | inactive: -0.27
O=c1c(-c2ccc(O)cc2)coc2cc(O[C@@H]3O[C@H](CO)[C@@H](O)[C@H](O)[C@H]3O)cc(O)c12 [Genistin] | inactive: 0.284
N#Cc1c2nc3ccccc3nc2n2ccc(NC(=O)c3cccs3)cc12 | inactive: 2.86
O=C1c2ccccc2-n2c1nc1ccccc1c2=O [Tryptanthrin] | inactive: -0.61
Clc1ccc(-c2csc(NN=C3CCCC3)n2)cc1 | active: -2.02

Structure (SMILES) | Z-score
CCN1CCN(C(=O)N[C@@H](C(=O)N[C@@H]2C(=O)N3[C@@H]2SC(C)(C)[C@@H]3C(=O)O)c2ccccc2)C(=O)C1=O [Piperacillin] | inactive: -0.453
CN1CCCC(n2nc(Cc3ccc(Cl)cc3)c3ccccc3c2=O)CC1 (centres undefined) [Azelastine·HCl] | inactive: -0.159
CN(C)CCC[C@@]1(c2ccc(F)cc2)OCc2cc(C#N)ccc21 [Escitalopram] | inactive: 0.35
COc1ccc(C2(CNC(=O)c3ccc(NC(=O)c4ccco4)cc3)CCOCC2)cc1 | inactive: -0.327
Cc1nc(N=Nc2ccc(C(=O)O)cc2)c(COP(=O)(O)O)c(C=O)c1O | inactive: 0.015
C[C@H]1C[C@H]2[C@@H]3CCC4=CC(=O)C=C[C@]4(C)[C@@]3(Cl)[C@@H](O)C[C@]2(C)[C@@]1(O)C(=O)CO [Beclomethasone] | inactive: -0.0652
Oc1ccc(O)cc1 [Hydroquinone] | inactive: -0.33
COc1cc2nc(N3CCN(C(=O)C4CCCO4)CC3)nc(N)c2cc1OC (centres undefined) [Terazosin·HCl] | inactive: 0.673
CC1CCN=C(N)S1 (racemic) [(±)-AMT  hydrochloride] | inactive: 1.03
CC(C)(O)CC[C@@H](O)[C@](C)(O)[C@H]1CC[C@@]2(O)C3=CC(=O)[C@@H]4C[C@@H](O)[C@@H](O)C[C@]4(C)[C@H]3CC[C@]12C [β-Ecdysone] | inactive: -0.371
O=C1c2c(O)cc(O)cc2O[C@H](c2ccc(O)c(O)c2)[C@H]1O [(+)-Taxifolin] | inactive: -0.107
O=C1c2ccccc2C(=O)c2c(NCCc3ccc(O)cc3)ccc(NCCc3ccc(O)cc3)c21 | inactive: -0.0094 and inactive: 0.176
Nc1ccn(C[C@@H](CO)OCP(=O)(O)O)c(=O)n1 [Cidofovir] | inactive: 0.388
CNCC[C@H](Oc1ccc(C(F)(F)F)cc1)c1ccccc1 [S-(+)-Fluoxetine hydrochloride] | inactive: -0.193
CC(=O)OCC(=O)[C@@]1(O)CC[C@H]2[C@@H]3CCC4=CC(=O)CC[C@]4(C)[C@H]3C(=O)C[C@@]21C [Cortisone Acetate] | inactive: -0.173
CC(=O)OCC(=O)[C@@]1(O)CC[C@H]2[C@@H]3CCC4=CC(=O)CC[C@]4(C)[C@H]3C(=O)C[C@@]21C [Cortisone 21- acetate] | inactive: -0.165
Cn1cc(C(=O)OCC2CCN(CCNS(C)(=O)=O)CC2)c2ccccc21 | inactive: 0.142
O=c1c(O)c(-c2ccccc2O)oc2cc(O)cc(O)c12 [Datiscetin] | inactive: 0.198
CC1=C(/C=C/C(C)=C/C=C/C(C)=C/C(=O)Nc2ccc(O)cc2)C(C)(C)CCC1 [Retinoic acid p- hydroxyanilide] | inactive: -0.302
CC(c1cc2ccccc2s1)N(O)C(N)=O (centres undefined) [Zileuton] | inactive: 3.62
C[C@@H]1C(=O)O[C@H]2C[C@@]34[C@H]5C[C@@H](C(C)(C)C)[C@]36[C@@H](OC(=O)[C@@H]6O)O[C@@]4(C(=O)O5)[C@]21O [Ginkgolide A] | inactive: -1.11
CC(=O)Oc1cc(C(C)C)c(OCCN(C)C)cc1C [Moxisylyte hydrochloride] | inactive: -0.304
